Source: PubChem BioAssay AID1224830 (NIAID, 2016)

Purpose: 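Host factors that control LPS-induced TNF expression in human macrophages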 (primary screen)
Cells: human THP-1 monocytic leukaemia cells, TNF dual-luciferase reporter clone, PMA-differentiated to macrophage-like cells
Reagent: siRNA pool against human genes, 50 nM
Time to read-out: LPS for 4 h, given about 3 days after siRNA transfection
Conditions: bacterial LPS (TLR4 ligand), 10 ng/ml
Detection: 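Ratio of firefly to renilla light, scaled to the plate median and expressed as a robust z-score per replicate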
Direction: TNF reporter robust z-score: higher = stronger TNF reporter response to LPS
Hit rule: 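Each well counts as active if its z-score is over 2.8 or under -1.5; controls are left without a call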
The deposit covers about 18,000 reagents; shown is a part drawn at random. Over the whole deposit, about 2,900 (16%) are marked active. 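Calls are made per well; low scores hint the gene aids the LPS response, high scores that it dampens it.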 Entries without a mark were called inactive. Repeated entries: four replicate wells of each siRNA pool. No sequences are given here.

With INS-IGF2 (INS-IGF2 readthrough) [SID315465173], what does the deposit list?
TNF reporter robust z-score: 0.76

For INS-IGF2 (INS-IGF2 readthrough) [SID315465173], what does the deposit list?
TNF reporter robust z-score: 0.89

For INS-IGF2 (INS-IGF2 readthrough) [SID315465173], what does the deposit list?
TNF reporter robust z-score: 0.9

With INS-IGF2 (INS-IGF2 readthrough) [SID315465173], what does the deposit list?
TNF reporter robust z-score: 0.46

How did the screen score TOX3 (TOX high mobility group box family member 3) [SID315456030]?
TNF reporter robust z-score: 2.33

What did the screen give for TOX3 (TOX high mobility group box family member 3) [SID315456030]?
TNF reporter robust z-score: 3.73 (active)

For TOX3 (TOX high mobility group box family member 3) [SID315456030], how do the results read?
TNF reporter robust z-score: 1.63

How did the screen score TOX3 (TOX high mobility group box family member 3) [SID315456030]?
TNF reporter robust z-score: 1.78

How did the screen score LRRC57 (leucine rich repeat containing 57) [SID315463488]?
TNF reporter robust z-score: -0.45

For LRRC57 (leucine rich repeat containing 57) [SID315463488], what does the deposit list?
TNF reporter robust z-score: -0.75

How did the screen score LRRC57 (leucine rich repeat containing 57) [SID315463488]?
TNF reporter robust z-score: -0.85

For LRRC57 (leucine rich repeat containing 57) [SID315463488], what does the deposit list?
TNF reporter robust z-score: -0.42

For SPTBN2 (spectrin beta, non-erythrocytic 2) [SID315451623], what does the deposit list?
TNF reporter robust z-score: -0.42

What is on record for SPTBN2 (spectrin beta, non-erythrocytic 2) [SID315451623]?
TNF reporter robust z-score: -0.27

With SPTBN2 (spectrin beta, non-erythrocytic 2) [SID315451623], what was measured?
TNF reporter robust z-score: -0.09

With SPTBN2 (spectrin beta, non-erythrocytic 2) [SID315451623], what does the deposit list?
TNF reporter robust z-score: 0.3

For SCEL (sciellin) [SID315452826], how do the results read?
TNF reporter robust z-score: -1.28

How did the screen score SCEL (sciellin) [SID315452826]?
TNF reporter robust z-score: -0.09

For SCEL (sciellin) [SID315452826], how do the results read?
TNF reporter robust z-score: -1.01

What did the screen give for SCEL (sciellin) [SID315452826]?
TNF reporter robust z-score: 0.18

For SLC34A3 [SID315462165], what was measured?
TNF reporter robust z-score: -1.13

For SLC34A3 [SID315462165], how do the results read?
TNF reporter robust z-score: 0.8

With SLC34A3 [SID315462165], what was measured?
TNF reporter robust z-score: -0.82

For SLC34A3 [SID315462165], what does the deposit list?
TNF reporter robust z-score: 0.63

Records listed so far called active:
TOX3 (TOX high mobility group box family member 3) [SID315456030] — TNF reporter robust z-score: 3.73 (active)

Further entries follow.
With PKP2 (plakophilin 2) [SID315450612], what does the deposit list?
TNF reporter robust z-score: -0.32

For PKP2 (plakophilin 2) [SID315450612], what does the deposit list?
TNF reporter robust z-score: -0.36

What is on record for PKP2 (plakophilin 2) [SID315450612]?
TNF reporter robust z-score: -0.48

With PKP2 (plakophilin 2) [SID315450612], what does the deposit list?
TNF reporter robust z-score: -0.5

What is on record for SLC27A2 [SID315454523]?
TNF reporter robust z-score: 0.51

For SLC27A2 [SID315454523], what does the deposit list?
TNF reporter robust z-score: -0.22

With SLC27A2 [SID315454523], how do the results read?
TNF reporter robust z-score: 0.68

For SLC27A2 [SID315454523], how do the results read?
TNF reporter robust z-score: 1.8

With FGF13 (fibroblast growth factor 13) [SID315448684], how do the results read?
TNF reporter robust z-score: -0.36

What is on record for FGF13 (fibroblast growth factor 13) [SID315448684]?
TNF reporter robust z-score: 0.7

What did the screen give for FGF13 (fibroblast growth factor 13) [SID315448684]?
TNF reporter robust z-score: 0.22

For FGF13 (fibroblast growth factor 13) [SID315448684], how do the results read?
TNF reporter robust z-score: -0.11

What did the screen give for NUP58 (nucleoporin 58) [SID315453591]?
TNF reporter robust z-score: 0.44

What did the screen give for NUP58 (nucleoporin 58) [SID315453591]?
TNF reporter robust z-score: 0.56

What did the screen give for NUP58 (nucleoporin 58) [SID315453591]?
TNF reporter robust z-score: 0.06

How did the screen score NUP58 (nucleoporin 58) [SID315453591]?
TNF reporter robust z-score: 0.16

What did the screen give for P3H1 (prolyl 3-hydroxylase 1) [SID315458860]?
TNF reporter robust z-score: -1.43

For P3H1 (prolyl 3-hydroxylase 1) [SID315458860], what was measured?
TNF reporter robust z-score: -1.04

With P3H1 (prolyl 3-hydroxylase 1) [SID315458860], what does the deposit list?
TNF reporter robust z-score: -0.92

What did the screen give for P3H1 (prolyl 3-hydroxylase 1) [SID315458860]?
TNF reporter robust z-score: -1.28

What is on record for UBE2A (ubiquitin conjugating enzyme E2 A) [SID315452035]?
TNF reporter robust z-score: -1.17

For UBE2A (ubiquitin conjugating enzyme E2 A) [SID315452035], what does the deposit list?
TNF reporter robust z-score: -0.31

For UBE2A (ubiquitin conjugating enzyme E2 A) [SID315452035], what was measured?
TNF reporter robust z-score: -0.71

How did the screen score UBE2A (ubiquitin conjugating enzyme E2 A) [SID315452035]?
TNF reporter robust z-score: 0.1

How did the screen score ARGFX (arginine-fifty homeobox) [SID315465018]?
TNF reporter robust z-score: -0.51

Which result is listed for ARGFX (arginine-fifty homeobox) [SID315465018]?
TNF reporter robust z-score: -0.48

What is on record for ARGFX (arginine-fifty homeobox) [SID315465018]?
TNF reporter robust z-score: -0.99

For ARGFX (arginine-fifty homeobox) [SID315465018], what does the deposit list?
TNF reporter robust z-score: 0.16

For SLC36A1 [SID315463148], how do the results read?
TNF reporter robust z-score: -0.94

What is on record for SLC36A1 [SID315463148]?
TNF reporter robust z-score: -0.59

With SLC36A1 [SID315463148], how do the results read?
TNF reporter robust z-score: -0.23

With SLC36A1 [SID315463148], what does the deposit list?
TNF reporter robust z-score: -0.36

For PITX3 (paired like homeodomain 3) [SID315450604], what does the deposit list?
TNF reporter robust z-score: -1.2

For PITX3 (paired like homeodomain 3) [SID315450604], what was measured?
TNF reporter robust z-score: -1.19

For PITX3 (paired like homeodomain 3) [SID315450604], what was measured?
TNF reporter robust z-score: -1.04

What did the screen give for PITX3 (paired like homeodomain 3) [SID315450604]?
TNF reporter robust z-score: -1.41
